We go through 7 compounds from PubChem BioAssay AID328 (DTP/NCI, 2004).

The test system of this assay is BDF1 mice, P388 leukemia ip, median survival T/C. Description: NCI In Vivo Anticancer Drug Screen. Data for tumor model P388 Leukemia (intraperitoneal) in B6D2F1 (BDF1) mice. As to conditions: T/C endpoint: median survival time, higher T/C = longer survival. Put shortly:
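Compound-treated tumour-bearing mice were compared with vehicle-treated controls. Survival was recorded, and the value is the treated-group measurement divided by the control-group measurement (T/C).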

[1] abbreviates: dose: 400.0 mg/kg/injection, schedule: Q01DX009 (ip), vehicle: saline.
Setting [2] is: dose: 50.0 mg/kg/injection, schedule: Q01DX009 (ip), vehicle: saline with Tween-80.
Where [3] appears, read: dose: 200.0 mg/kg/injection, schedule: Q01DX009 (ip), vehicle: saline with Tween-80.

The list shows only some results of the screen, not a fair sample: it gathers tests that were run many times, whatever their T/C, doses with no T/C, and many T/C values between a quarter and a half above the control. Further doses and runs are listed elsewhere. T/C gives the treated animals as a percentage of the vehicle group. Some entries give survivors of the animals treated and no T/C: the source holds a T/C of zero for them, seemingly a mark for toxic or unscored doses. Some doses without a T/C left all or most animals alive at the check, yet need not have been tolerated: survival well below the control is almost never listed, so the zero probably covers shortened survival too. Survivors were counted at the toxicity check, usually on the fifth day, unless a day is given; later deaths do not show. Schedules are NCI's codes, taken here to give the interval after Q, in days (D) or hours (H), and the number of doses after X. Some entries were tested several times; the values are given in rising order. For survival time, the PubChem record calls one and a half times the control and up active, and a quarter to a half above the control has no call in these data; cut-offs in other NCI protocols can differ.

Take `CCOC(=O)CCN1CCCCCC1`: the survivor count is, setting by setting: (dose: 100.0 mg/kg/injection, schedule: Q01DX009 (ip), vehicle: saline) 5 of 6; under setting [1], 6 of 6.

On to `O=[N+]([O-])c1ccc(N/N=C\c2ccc3ccccc3n2)cc1`, for which the survivor count under setting [1] was 6 of 6.

As to `CCN(Cc1ccccc1)c1ccc(/C=C/c2nccc3ccccc23)cc1`, the T/C (dose: 400.0 mg/kg/injection, schedule: Q04DX002 (ip), vehicle: saline with Tween-80) is 132 % of control.

On to `CC(C)C(=O)[O][Sn]([c]1ccccc1)([c]1ccccc1)[c]1ccccc1`, for which the survivor count was 6 of 6 (dose: 25.0 mg/kg/injection, schedule: Q01DX009 (ip), vehicle: saline with Tween-80) and 0 of 6 under setting [2].

Consider `CSC(=S)N/N=C(\C)C1CCCC[N-]1.[I][Zn][I]` (stereo unspecified), for which the T/C under setting [2] is listed as 97, 117, 125, 130 % of control. The survivor count is, setting by setting: (dose: 100.0 mg/kg/injection, schedule: Q01DX009 (ip), vehicle: saline with Tween-80) 5 of 6 and 6 of 6; under setting [3], 0 of 6.

`CCN(CC)CCCNc1cccc2c(C)cc(OC)nc12`: the survivor count under setting [3] was 1 of 6.

As for `OC(c1ccccc1)(C1CCNCC1)C1CC1` (stereo unspecified), for the setting “dose: 200.0 mg/kg/injection, schedule: Q01DX001 (ip), vehicle: saline”, the survivor count is 2 of 6.
